# Data published in the supplement of paper PMC8728848.
# The other results are listed elsewhere or left out.
# Columns and labels:
# Test in all cases: glycan array binding signal (z-score within array); higher = stronger binding
# Settings in all cases: glycan notation: IUPAC condensed, linker removed
# [1] = biological target: Fuc(a1-2)Gal
# Outline: (§1)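 From the Consortium for Functional Glycomics database, 3228 arrays were curated, keeping only those whose protein sequence was available. Binding is given as a within-array Z-score averaged across arrays sharing a protein sequence and across linkers. Negative Z-scores can be read as non-binding.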
# [2] = biological target: Fuc(a1-2)Gal(b1-3)GalNAc
# Outline: as §1
# [3] = biological target: Fuc(a1-2)Gal(b1-3)GalNAc(a1-3)[Fuc(a1-2)]Gal(b1-4)Glc
# Outline: as §1
# [4] = biological target: Fuc(a1-2)Gal(b1-3)GalNAc(a1-3)[Fuc(a1-2)]Gal(b1-4)GlcNAc
# Outline: as §1
# [5] = biological target: Fuc(a1-2)Gal(b1-3)GalNAc(b1-3)Gal
# Outline: as §1
# [6] = biological target: Fuc(a1-2)Gal(b1-3)GalNAc(b1-3)Gal(a1-4)Gal(b1-4)Glc
# Outline: as §1
# [7] = biological target: Fuc(a1-2)Gal(b1-3)GalNAc(b1-4)[Neu5Ac(a2-3)]Gal(b1-4)Glc
# Outline: as §1
# [8] = biological target: Fuc(a1-2)Gal(b1-3)GlcNAc
# Outline: as §1
# [9] = biological target: Fuc(a1-2)Gal(b1-3)GlcNAc(b1-2)Man(a1-3)[Fuc(a1-2)Gal(b1-3)GlcNAc(b1-2)Man(a1-6)]Man(b1-4)GlcNAc(b1-4)GlcNAc
# Outline: as §1
# [10] = biological target: Fuc(a1-2)Gal(b1-3)GlcNAc(b1-2)Man(a1-3)[Fuc(a1-2)Gal(b1-3)GlcNAc(b1-2)Man(a1-6)]Man(b1-4)GlcNAc(b1-4)[Fuc(a1-6)]GlcNAc
# Outline: as §1
# [11] = biological target: Fuc(a1-2)Gal(b1-3)GlcNAc(b1-3)Gal(b1-4)Glc
# Outline: as §1
# [12] = biological target: Fuc(a1-2)Gal(b1-3)GlcNAc(b1-3)GalNAc
# Outline: as §1
# [13] = biological target: Fuc(a1-2)Gal(b1-3)GlcNAc(b1-3)[Fuc(a1-2)Gal(b1-3)GlcNAc(b1-6)]GalNAc
# Outline: as §1
# [14] = biological target: Fuc(a1-2)Gal(b1-3)GlcNAc(b1-3)[Gal(b1-4)GlcNAc(b1-6)]Gal(b1-4)Glc
# Outline: as §1
# [15] = biological target: Fuc(a1-2)Gal(b1-3)GlcNAc(b1-3)[Neu5Ac(a2-6)Gal(b1-4)GlcNAc(b1-6)]Gal(b1-4)Glc
# Outline: as §1
# [16] = biological target: Fuc(a1-2)Gal(b1-3)GlcNAc6S
# Outline: as §1
# [17] = biological target: Fuc(a1-2)Gal(b1-3)[Fuc(a1-4)]GlcNAc
# Outline: as §1
# [18] = biological target: Fuc(a1-2)Gal(b1-3)[Fuc(a1-4)]GlcNAc(b1-2)Man(a1-3)[Fuc(a1-2)Gal(b1-3)[Fuc(a1-4)]GlcNAc(b1-2)Man(a1-3)]Man(b1-4)GlcNAc(b1-4)GlcNAc
# Outline: as §1
# [19] = biological target: Fuc(a1-2)Gal(b1-3)[Fuc(a1-4)]GlcNAc(b1-2)Man(a1-3)[Fuc(a1-2)Gal(b1-3)[Fuc(a1-4)]GlcNAc(b1-2)Man(a1-6)]Man(b1-4)GlcNAc(b1-4)[Fuc(a1-6)]GlcNAc(b1-4)[Fuc(a1-6)]GlcNAc
# Outline: as §1
# [20] = biological target: Fuc(a1-2)Gal(b1-3)[Fuc(a1-4)]GlcNAc(b1-3)[Fuc(a1-3)[Gal(b1-4)]GlcNAc(b1-6)]Gal(b1-4)Glc
# Outline: as §1
# [21] = biological target: Fuc(a1-2)Gal(b1-3)[Fuc(a1-4)]GlcNAc(b1-3)[Gal(b1-4)GlcNAc(b1-6)]Gal(b1-4)Glc
# Outline: as §1
# [22] = biological target: Fuc(a1-2)Gal(b1-4)Fuc(a1-3)]GlcNAc(b1-2)Man(a1-3)[Fuc(a1-2)Gal(b1-4)[Fuc(a1-3)]GlcNAc(b1-2)Man(a1-6)]Man(b1-4)GlcNAc(b1-4)GlcNAc
# Outline: as §1
# [23] = biological target: Fuc(a1-2)Gal(b1-4)Glc
# Outline: as §1
# [24] = biological target: Fuc(a1-2)Gal(b1-4)Glc6S
# Outline: as §1
# [25] = biological target: Fuc(a1-2)Gal(b1-4)GlcNAc
# Outline: as §1
# [26] = biological target: Fuc(a1-2)Gal(b1-4)GlcNAc(b1-2)Man
# Outline: as §1
# [27] = biological target: Fuc(a1-2)Gal(b1-4)GlcNAc(b1-2)Man(a1-3)[Fuc(a1-2)Gal(b1-4)GlcNAc(b1-2)Man(a1-6)]Man(b1-4)GlcNAc(b1-4)GlcNAc
# Outline: as §1
# [28] = biological target: Fuc(a1-2)Gal(b1-4)GlcNAc(b1-2)Man(a1-3)[Fuc(a1-2)Gal(b1-4)GlcNAc(b1-2)Man(a1-6)]Man(b1-4)GlcNAc(b1-4)[Fuc(a1-6)]GlcNAc
# Outline: as §1
# [29] = biological target: Fuc(a1-2)Gal(b1-4)GlcNAc(b1-2)[Fuc(a1-2)Gal(b1-4)GlcNAc(b1-4)]Man(a1-3)[Fuc(a1-2)Gal(b1-4)GlcNAc(b1-2)Man(a1-6)]Man(b1-4)GlcNAc(b1-4)GlcNAc
# Outline: as §1
# [30] = biological target: Fuc(a1-2)Gal(b1-4)GlcNAc(b1-3)Gal(b1-4)GlcNAc
# Outline: as §1
# [31] = biological target: Fuc(a1-2)Gal(b1-4)GlcNAc(b1-3)Gal(b1-4)GlcNAc(b1-2)Man(a1-3)[Fuc(a1-2)Gal(b1-4)GlcNAc(b1-3)Gal(b1-4)GlcNAc(b1-2)Man(a1-6)]Man(b1-4)GlcNAc(b1-4)GlcNAc
# Outline: as §1
# [32] = biological target: Fuc(a1-2)Gal(b1-4)GlcNAc(b1-3)Gal(b1-4)GlcNAc(b1-3)Gal(b1-4)GlcNAc
# Outline: as §1
# [33] = biological target: Fuc(a1-2)Gal(b1-4)GlcNAc(b1-3)GalNAc
# Outline: as §1
# [34] = biological target: Fuc(a1-2)Gal(b1-4)GlcNAc(b1-3)[Fuc(a1-2)Gal(b1-4)GlcNAc(b1-6)]GalNAc
# Outline: as §1
# [35] = biological target: Fuc(a1-2)Gal(b1-4)GlcNAc(b1-3)[Fuc(a1-3)[Gal(b1-4)]GlcNAc(b1-6)]Gal(b1-4)Glc
# Outline: as §1
# [36] = biological target: Fuc(a1-2)Gal(b1-4)GlcNAc(b1-6)GalNAc
# Outline: as §1
# [37] = biological target: Fuc(a1-2)Gal(b1-4)GlcNAc6S
# Outline: as §1
binder,measurement,setting,value
"ERGIC1-EDTA (Homo sapiens), Q969X5 (protein) MKFLVNVALVFMVVYISYIYAAAHMHHHHHHDYDIPTTENLYFQGSEVVNELYVDDPDKDSGGKIDVSLNISLPNLHCELVGLDIQDEMGRHEVGHIDNSMKIPLNNGAGCRFEGQFSINKVPGNFHVSTHSATAQPQNPDMTHVIHKLSFGDTLQVQNIHGAFNALGGADRLTSNPLASHDYILKIVPTVYEDKSGKQRYSYQYTVANKEYVAYSHTGRIIPAIWFRYDLSPITVKYTE",glycan array binding signal (z-score),[1],0.744
same,glycan array binding signal (z-score),[2],-0.119
same,glycan array binding signal (z-score),[3],0.453
same,glycan array binding signal (z-score),[4],-0.308
same,glycan array binding signal (z-score),[5],1.15
same,glycan array binding signal (z-score),[6],-0.752
same,glycan array binding signal (z-score),[7],-1.11
same,glycan array binding signal (z-score),[8],-0.107
same,glycan array binding signal (z-score),[9],1.02
same,glycan array binding signal (z-score),[10],0.972
same,glycan array binding signal (z-score),[11],-0.301
same,glycan array binding signal (z-score),[12],-0.417
same,glycan array binding signal (z-score),[13],-0.309
same,glycan array binding signal (z-score),[14],-0.151
same,glycan array binding signal (z-score),[15],-0.999
same,glycan array binding signal (z-score),[16],-0.017
same,glycan array binding signal (z-score),[17],0.064
same,glycan array binding signal (z-score),[18],1.16
same,glycan array binding signal (z-score),[19],0.316
same,glycan array binding signal (z-score),[20],-0.833
same,glycan array binding signal (z-score),[21],1.36
same,glycan array binding signal (z-score),[22],1.01
same,glycan array binding signal (z-score),[23],-1.4
same,glycan array binding signal (z-score),[24],-0.045
same,glycan array binding signal (z-score),[25],0.072
same,glycan array binding signal (z-score),[26],-0.469
same,glycan array binding signal (z-score),[27],0.786
same,glycan array binding signal (z-score),[28],0.522
same,glycan array binding signal (z-score),[29],2.88
same,glycan array binding signal (z-score),[30],-1.26
same,glycan array binding signal (z-score),[31],0.594
same,glycan array binding signal (z-score),[32],0.515
same,glycan array binding signal (z-score),[33],1.23
same,glycan array binding signal (z-score),[34],-0.42
same,glycan array binding signal (z-score),[35],-0.12
same,glycan array binding signal (z-score),[36],1.3
same,glycan array binding signal (z-score),[37],-0.213

# Some of the entries so far, bar-delimited:
binder | measurement | setting | value
ERGIC1-EDTA (Homo sapiens), Q969X5 (protein) MKFLVNVALVFMVVYISYIYAAAHMHHHHHHDYDIPTTENLYFQGSEVVNELYVDDPDKDSGGKIDVSLNISLPNLHCELVGLDIQDEMGRHEVGHIDNSMKIPLNNGAGCRFEGQFSINKVPGNFHVSTHSATAQPQNPDMTHVIHKLSFGDTLQVQNIHGAFNALGGADRLTSNPLASHDYILKIVPTVYEDKSGKQRYSYQYTVANKEYVAYSHTGRIIPAIWFRYDLSPITVKYTE | glycan array binding signal (z-score) | [9] | 1.02
same | glycan array binding signal (z-score) | [34] | -0.42
